# Measurements published in patent US20170234881A1, “METHODS OF DIAGNOSING AND TREATING CANCER” (INSERM ( INSTITUT NATIONAL DE LA SANTÉ ET DE LA RECHERCHE …, priority 2014, published 2017).
# At least one structure is not confirmed: it was looked up by name or label, or the drawing left a doubt.
# Tests used:
# MCF7 cells = assay: Cell proliferation assay (BrDU incorporation), MCF7; type: cell-based, human; conditions: 1 nM estradiol, 24 h
# Procedure: (§1) FIG. 2. OCDO is a tumor promoter in vitro and in vivo and its inhibition contributes to the anti-tumor effects of Tam and DDA. (A, B) Histograms representing the effect of OCDO or 17β-estrogen (E2) on MCF7 (A) and TS/A (B) cell proliferation after 24 h treatment using a colorimetric immunoassay measuring BrDU incorporation in DNA (C, D) Histogram representing the effect of OCDO on MCF7 (C) and TS/A (D) cell invasion. Data are the mean of three separate experiments (±[…]) Mice were implanted s.c. with MCF7 (E) or TS/A (F) cells and animals (8 per group) were treated s.c. every day starting on the day of implantation with either the solvent vehicle or OCDO (16 μg/kg for MCF7 or 50 μg/kg for TS/A). Animals were monitored for tumour growth twice a week. The data are representative of three independent experiments. The mean tumor volume±s.e.m is shown, *P<0.05, **P<0.01, ***P<0.001 (analysis of variance (ANOVA), Dunnett's post test). […] (I, J, K). Murine […], or human MDA-MB231 (J) or MDA-MB468 (K) cells implanted s.c. into mice (8 per group) and animals were treated s.c. with either the solvent vehicle or OCDO (16 μg/kg for MDA-MB-231 and MDA-MB-468 or 50 μg/kg for E0771). […] At the end of this time, cells were incubated with BrDU for an additional 8 h and then evaluated for proliferation using the ELISA kit, Roche Diagnostic, as indicated by the manufacturer.
# TS/A cells = assay: Cell proliferation assay (BrDU incorporation), TS/A; type: cell-based, mouse; conditions: 1 nM estradiol, 24 h
# Procedure: as §1
smiles,measurement,setting,value
"C[C@]12CC[C@@H]3c4ccc(O)cc4CC[C@H]3[C@@H]1CC[C@@H]2O [estradiol, reference compound]",increase in proliferation compared with that by OCDO,MCF7 cells,in the same range
same,increase in proliferation compared with that by OCDO,TS/A cells,in the same range
